Reference: PMC4335056
These are yes or no findings as the source states them, for the method shown. In cells and extracts the contact can be indirect. Some entries that bind do so weakly or less than the wild type. Where a sequence is shown, tags or fusion partners need not be part of it.

T1: TwinkleFLAG (mtDNA helicase Twinkle with a FLAG tag at its C-terminus), Q96RR1
T1 chain: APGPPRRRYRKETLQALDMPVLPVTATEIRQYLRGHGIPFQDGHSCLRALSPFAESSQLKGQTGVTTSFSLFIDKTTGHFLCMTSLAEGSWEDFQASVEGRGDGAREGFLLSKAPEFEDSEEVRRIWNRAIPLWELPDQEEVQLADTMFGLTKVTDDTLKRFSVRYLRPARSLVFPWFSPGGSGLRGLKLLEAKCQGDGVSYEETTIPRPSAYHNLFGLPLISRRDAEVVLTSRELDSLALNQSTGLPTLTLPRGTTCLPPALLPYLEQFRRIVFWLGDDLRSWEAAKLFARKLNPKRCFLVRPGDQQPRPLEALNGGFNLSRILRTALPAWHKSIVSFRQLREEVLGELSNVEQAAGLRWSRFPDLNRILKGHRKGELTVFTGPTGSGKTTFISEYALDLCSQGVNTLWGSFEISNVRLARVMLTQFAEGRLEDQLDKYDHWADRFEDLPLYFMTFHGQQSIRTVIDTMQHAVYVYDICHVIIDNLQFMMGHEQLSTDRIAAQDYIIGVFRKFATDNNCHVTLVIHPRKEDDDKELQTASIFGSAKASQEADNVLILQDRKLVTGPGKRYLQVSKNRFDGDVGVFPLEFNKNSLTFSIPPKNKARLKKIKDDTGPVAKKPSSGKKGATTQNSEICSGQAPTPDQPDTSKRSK

T2: TwinkleFLAG (mtDNA helicase Twinkle with a FLAG tag at its C-terminus) (UniProt Q96RR1)
T2 sequence: T1 chain

B1: POLG1 (Polymerase gamma), P54098 1-1239 (enzyme)
chain: MSRLLWRKVAGATVGPGPVPAPGRWVSSSVPASDPSDGQRRRQQQQQQQQQQQQQPQQPQVLSSEGGQLRHNPLDIQMLSRGLHEQIFGQGGEMPGEAAVRRSVEHLQKHGLWGQPAVPLPDVELRLPPLYGDNLDQHFRLLAQKQSLPYLEAANLLLQAQLPPKPPAWAWAEGWTRYGPEGEAVPVAIPEERALVFDVEVCLAEGTCPTLAVAISPSAWYSWCSQRLVEERYSWTSQLSPADLIPLEVPTGASSPTQRDWQEQLVVGHNVSFDRAHIREQYLIQGSRMRFLDTMSMHMAISGLSSFQRSLWIAAKQGKHKVQPPTKQGQKSQRKARRGPAISSWDWLDISSVNSLAEVHRLYVGGPPLEKEPRELFVKGTMKDIRENFQDLMQYCAQDVWATHEVFQQQLPLFLERCPHPVTLAGMLEMGVSYLPVNQNWERYLAEAQGTYEELQREMKKSLMDLANDACQLLSGERYKEDPWLWDLEWDLQEFKQKKAKKVKKEPATASKLPIEGAGAPGDPMDQEDLGPCSEEEEFQQDVMARACLQKLKGTTELLPKRPQHLPGHPGWYRKLCPRLDDPAWTPGPSLLSLQMRVTPKLMALTWDGFPLHYSERHGWGYLVPGRRDNLAKLPTGTTLESAGVVCPYRAIESLYRKHCLEQGKQQLMPQEAGLAEEFLLTDNSAIWQTVEELDYLEVEAEAKMENLRAAVPGQPLALTARGGPKDTQPSYHHGNGPYNDVDIPGCWFFKLPHKDGNSCNVGSPFAKDFLPKMEDGTLQAGPGGASGPRALEINKMISFWRNAHKRISSQMVVWLPRSALPRAVIRHPDYDEEGLYGAILPQVVTAGTITRRAVEPTWLTASNARPDRVGSELKAMVQAPPGYTLVGADVDSQELWIAAVLGDAHFAGMHGCTAFGWMTLQGRKSRGTDLHSKTATTVGISREHAKIFNYGRIYGAGQPFAERLLMQFNHRLTQQEAAEKAQQMYAATKGLRWYRLSDEGEWLVRELNLPVDRTEGGWISLQDLRKVQRETARKSQWKKWEVVAERAWKGGTESEMFNKLESIATSDIPRTPVLGCCISRALEPSAVQEEFMTSRVNWVVQSSAVDYLHLMLVAMKWLFEEFAIDGRFCISIHDEVRYLVREEDRYRAALALQITNLLTRCMFAYKLGLNDLPQSVAFFSAVDIDRCLRKEVTMDCKTPSNPTGMERRYGIPQGEALDIYQIIELTKGSLEKRSQPGP
B2: mitochondrial transcription factor A (TFAM) (protein, UniProt Q00059 43-246)
chain: SSVLASCPKKPVSSYLRFSKEQLPIFKAQNPDAKTTELIRRIAQRWRELPDSKKKIYQDAYRAEWQVYKEEISRFKEQLTPSQIMSLEKEIMDKHLKRKAMTKKKELTLLGKPKRPRSAYNVYVAERFQEAKGDSPQEKLKTVKENWKNLSDSEKELYIQHAKEDETRYHNEMKSWEEQMIEVGRKDLLRRTIKKQRKYGAEEC
B3: Mitochondrial single stranded DNA binding protein (mtSSB) (protein, UniProt Q04837 17-148)
chain: ESETTTSLVLERSLNRVHLLGRVGQDPVLRQVEGKNPVTIFSLATNEMWRSGDSEVYQLGDVSQKTTWHRISVFRPGLRDVAYQYVKKGSRIYLEGKIDYGEYMDKNNVRRQATTIIADNIIFLSDQTKEKE

What was measured:
[1] = molecular target: T1, TwinkleFLAG (mtDNA helicase Twinkle …); test: cross-linking + co-IP; whole cells cross-linked with 1% formaldehyde for 10 min at RT, lysed, TwinkleFLAG captured on FLAG resin, eluted with 3xFLAG peptide, eluates analysed by Western blot; mtDNA-containing HEK293 Flp-In T-Rex cells; controls without cross-linking and with mtLucFLAG; conditions: remark: other sources report otherwise
[2] = molecular target: T2, TwinkleFLAG (mtDNA helicase Twinkle with a FLAG tag at its C-terminus); test: as above

Row | Binder | binding [1] | binding [2]
1 | B1 | binds | –
2 | B2 | – | binds
3 | B3 | – | binds
